No constants are given. Whether binding was seen depends on the method and setting. In cells and extracts the contact can be indirect. Some results given as binding are weak or reduced against the parent protein; the word gives no strength. For some assays here: Sequences can lack the tags named with a protein.
How the values were obtained:
[1] = target: human SHOC1-nVenus (human) (UniProt Q5VXU9); test: split reporter; Bi-FC with Venus fragments VN210 and VC210 fused to the two proteins, transfected into HeLa cells, fluorescence imaging
[2] = target: mouse SHOC1 ΔF3 (aa626-1154del) (mouse) (UniProt A2ALV5); test: co-IP; tagged proteins co-expressed in pairs in HEK293T; immunoprecipitated from cell lysates by tag-specific antibodies, Western blot; IP lysis buffer 20 mM HEPES, 150 mM NaCl, 0.5% NP-40, 1 mM DTT, pH 7.3; 4°C (Fig. 1A, B; Supplementary Fig. S2C, D)
[3] = target: mouse SHOC1 ΔF2 (aa313-625del) (mouse) (UniProt A2ALV5); test: as above
[4] = target: mouse SHOC1 ΔF4 (aa1155-1482del) (mouse) (UniProt A2ALV5); test: as above
[5] = target: human SHOC1 ΔF2 (aa289-576del) (human) (UniProt Q5VXU9); test: as above
[6] = target: human SHOC1 ΔF1 (aa1-288del) (human) (UniProt Q5VXU9); test: as above
[7] = target: human FLAG-tagged SHOC1 (human) (UniProt Q5VXU9); test: as above
[8] = target: human SHOC1 ΔF3 (aa577-1098del) (human) (UniProt Q5VXU9); test: as above
[9] = target: human SHOC1 ΔF4 (aa1099-1444del) (human) (UniProt Q5VXU9); test: as above

Sequences of proteins named here, by UniProt entry; tags and fusion partners are left off. A change or cut given only in a name is not applied to a line headed by its entry. A line that says so, or that is headed by a name, gives the form on record, which may keep a tag or linker. Residues count along the entry.
UniProt Q5VXU9: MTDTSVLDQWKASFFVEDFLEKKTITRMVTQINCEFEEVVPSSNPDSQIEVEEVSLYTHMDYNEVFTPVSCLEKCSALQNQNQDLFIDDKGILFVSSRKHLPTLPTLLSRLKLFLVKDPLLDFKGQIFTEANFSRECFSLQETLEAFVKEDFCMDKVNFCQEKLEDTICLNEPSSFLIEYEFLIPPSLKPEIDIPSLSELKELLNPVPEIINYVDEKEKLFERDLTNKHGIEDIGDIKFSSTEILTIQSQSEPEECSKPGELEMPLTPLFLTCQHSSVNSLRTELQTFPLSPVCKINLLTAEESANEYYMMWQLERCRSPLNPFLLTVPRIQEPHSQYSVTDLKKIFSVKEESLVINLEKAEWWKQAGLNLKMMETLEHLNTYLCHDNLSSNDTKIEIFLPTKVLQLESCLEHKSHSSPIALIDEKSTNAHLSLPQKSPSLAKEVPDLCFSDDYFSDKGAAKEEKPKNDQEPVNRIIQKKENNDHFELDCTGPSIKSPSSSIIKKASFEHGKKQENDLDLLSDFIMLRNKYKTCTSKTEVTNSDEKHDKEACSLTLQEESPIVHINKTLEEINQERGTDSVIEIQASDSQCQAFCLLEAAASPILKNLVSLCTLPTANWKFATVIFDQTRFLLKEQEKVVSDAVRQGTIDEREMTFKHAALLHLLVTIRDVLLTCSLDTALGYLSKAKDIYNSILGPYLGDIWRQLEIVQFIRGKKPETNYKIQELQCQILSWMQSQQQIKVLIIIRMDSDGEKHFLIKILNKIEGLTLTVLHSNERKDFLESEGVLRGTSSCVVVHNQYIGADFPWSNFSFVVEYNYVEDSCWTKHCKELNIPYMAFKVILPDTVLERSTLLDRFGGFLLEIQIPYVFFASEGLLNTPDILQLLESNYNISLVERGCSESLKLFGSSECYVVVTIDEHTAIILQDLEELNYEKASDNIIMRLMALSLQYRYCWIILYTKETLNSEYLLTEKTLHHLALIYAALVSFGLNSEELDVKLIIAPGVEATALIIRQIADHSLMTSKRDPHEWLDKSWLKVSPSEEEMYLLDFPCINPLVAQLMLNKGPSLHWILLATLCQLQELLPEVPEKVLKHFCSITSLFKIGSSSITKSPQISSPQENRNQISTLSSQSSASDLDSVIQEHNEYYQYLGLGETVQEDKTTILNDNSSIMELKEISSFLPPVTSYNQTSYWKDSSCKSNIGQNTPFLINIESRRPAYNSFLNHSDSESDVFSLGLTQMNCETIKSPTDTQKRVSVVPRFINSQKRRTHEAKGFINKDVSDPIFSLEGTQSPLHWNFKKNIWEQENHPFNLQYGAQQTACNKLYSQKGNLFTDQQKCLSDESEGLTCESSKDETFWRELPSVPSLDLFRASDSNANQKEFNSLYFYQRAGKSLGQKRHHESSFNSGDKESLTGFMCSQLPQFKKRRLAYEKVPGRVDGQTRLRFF
human SHOC1 ΔF4 (aa1099-1444del): residues 1-1098 of Q5VXU9
human SHOC1 ΔF1 (aa1-288del): residues 289-1444 of Q5VXU9
human SHOC1 ΔF2 (aa289-576del) (Q5VXU9, form named): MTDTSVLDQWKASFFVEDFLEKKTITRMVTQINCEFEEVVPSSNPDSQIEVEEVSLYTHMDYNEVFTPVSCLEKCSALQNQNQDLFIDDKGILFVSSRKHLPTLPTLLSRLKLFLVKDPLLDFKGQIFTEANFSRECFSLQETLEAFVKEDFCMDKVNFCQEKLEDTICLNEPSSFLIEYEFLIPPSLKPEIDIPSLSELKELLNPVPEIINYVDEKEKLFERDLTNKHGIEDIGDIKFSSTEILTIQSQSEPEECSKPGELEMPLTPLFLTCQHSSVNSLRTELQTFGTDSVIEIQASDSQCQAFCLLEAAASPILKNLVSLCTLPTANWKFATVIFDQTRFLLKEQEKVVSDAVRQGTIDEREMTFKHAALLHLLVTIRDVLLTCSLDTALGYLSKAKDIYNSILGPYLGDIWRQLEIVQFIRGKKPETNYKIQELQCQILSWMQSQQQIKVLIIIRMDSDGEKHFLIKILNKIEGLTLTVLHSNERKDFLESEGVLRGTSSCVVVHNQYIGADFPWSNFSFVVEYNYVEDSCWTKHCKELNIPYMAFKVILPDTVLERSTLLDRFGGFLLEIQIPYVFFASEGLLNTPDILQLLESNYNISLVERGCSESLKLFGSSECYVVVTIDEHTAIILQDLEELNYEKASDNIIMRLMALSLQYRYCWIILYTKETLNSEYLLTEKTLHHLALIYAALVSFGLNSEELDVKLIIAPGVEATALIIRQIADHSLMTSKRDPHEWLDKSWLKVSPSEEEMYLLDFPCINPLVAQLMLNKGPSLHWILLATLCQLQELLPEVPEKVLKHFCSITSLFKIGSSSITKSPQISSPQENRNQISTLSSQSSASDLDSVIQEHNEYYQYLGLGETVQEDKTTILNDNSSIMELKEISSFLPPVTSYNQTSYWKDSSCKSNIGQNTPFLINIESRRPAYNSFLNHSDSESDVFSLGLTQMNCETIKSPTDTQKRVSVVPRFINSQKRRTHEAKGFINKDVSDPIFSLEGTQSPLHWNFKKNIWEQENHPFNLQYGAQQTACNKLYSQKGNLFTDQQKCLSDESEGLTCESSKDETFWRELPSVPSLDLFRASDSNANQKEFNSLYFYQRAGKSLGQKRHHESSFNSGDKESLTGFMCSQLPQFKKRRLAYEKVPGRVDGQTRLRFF
human SHOC1 ΔF3 (aa577-1098del) (Q5VXU9, form named): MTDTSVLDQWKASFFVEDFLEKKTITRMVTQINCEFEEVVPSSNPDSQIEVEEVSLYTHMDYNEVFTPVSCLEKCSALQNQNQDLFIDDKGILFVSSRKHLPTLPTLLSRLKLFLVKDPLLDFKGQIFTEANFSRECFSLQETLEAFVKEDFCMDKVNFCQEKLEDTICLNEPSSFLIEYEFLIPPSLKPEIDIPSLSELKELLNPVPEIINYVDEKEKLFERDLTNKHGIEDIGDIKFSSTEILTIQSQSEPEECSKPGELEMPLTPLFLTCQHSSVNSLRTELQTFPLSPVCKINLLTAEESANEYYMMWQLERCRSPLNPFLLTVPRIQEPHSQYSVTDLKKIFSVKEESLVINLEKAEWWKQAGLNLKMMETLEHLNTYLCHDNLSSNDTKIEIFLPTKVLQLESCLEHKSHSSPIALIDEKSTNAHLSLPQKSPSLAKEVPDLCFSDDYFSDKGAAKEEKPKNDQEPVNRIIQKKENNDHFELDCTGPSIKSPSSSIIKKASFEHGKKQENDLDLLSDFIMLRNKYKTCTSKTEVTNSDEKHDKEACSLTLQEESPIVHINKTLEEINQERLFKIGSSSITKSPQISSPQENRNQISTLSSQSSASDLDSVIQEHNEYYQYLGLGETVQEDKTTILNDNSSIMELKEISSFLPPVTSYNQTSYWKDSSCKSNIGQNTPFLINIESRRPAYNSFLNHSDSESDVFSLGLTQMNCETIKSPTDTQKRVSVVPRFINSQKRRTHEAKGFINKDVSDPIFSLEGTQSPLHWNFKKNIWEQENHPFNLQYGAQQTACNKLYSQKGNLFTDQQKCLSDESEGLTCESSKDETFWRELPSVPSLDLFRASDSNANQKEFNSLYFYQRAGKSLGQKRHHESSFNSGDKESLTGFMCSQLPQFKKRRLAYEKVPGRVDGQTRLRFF

Measured: binding

B1: human TEX11-cVenus (protein, UniProt Q8IYF3 1-940)
chain: MISAHCNLRLLCSSDSSASASQVAGTTEVVENLVTNDNSPNIPEAIDRLFSDIANINRESMAEITDIQIEEMAVNLWNWALTIGGGWLVNEEQKIRLHYVACKLLSMCEASFASEQSIQRLIMMNMRIGKEWLDAGNFLIADECFQAAVASLEQLYVKLIQRSSPEADLTMEKITVESDHFRVLSYQAESAVAQGDFQRASMCVLQCKDMLMRLPQMTSSLHHLCYNFGVETQKNNKYEESSFWLSQSYDIGKMDKKSTGPEMLAKVLRLLATNYLDWDDTKYYDKALNAVNLANKEHLSSPGLFLKMKILLKGETSNEELLEAVMEILHLDMPLDFCLNIAKLLMDHERESVGFHFLTIIHERFKSSENIGKVLILHTDMLLQRKEELLAKEKIEEIFLAHQTGRQLTAESMNWLHNILWRQAASSFEVQNYTDALQWYYYSLRFYSTDEMDLDFTKLQRNMACCYLNLQQLDKAKEAVAEAERHDPRNVFTQFYIFKIAVIEGNSERALQAIITLENILTDEESEDNDLVAERGSPTMLLSLAAQFALENGQQIVAEKALEYLAQHSEDQEQVLTAVKCLLRFLLPKIAEMPESEDKKKEMDRLLTCLNRAFVKLSQPFGEEALSLESRANEAQWFRKTAWNLAVQCDKDPVMMREFFILSYKMSQFCPSDQVILIARKTCLLMAVAVDLEQGRKASTAFEQTMFLSRALEEIQTCNDIHNFLKQTGTFSNDSCEKLLLLYEFEVRAKLNDPLLESFLESVWELPHLETKTFETIAIIAMEKPAHYPLIALKALKKALLLYKKEEPIDISQYSKCMHNLVNLSVPDGASNVELCPLEEVWGYFEDALSHISRTKDYPEMEILWLMVKSWNTGVLMFSRSKYASAEKWCGLALRFLNHLTSFKESYETQMNMLYSQLVEALSNNKGPVFHEHGYWSKSD
binds: [1]

B2: mouse HA-tagged REDIC1 (protein, UniProt A0A087WRU1 1-652)
chain: MNWVGGSRSRVLIKQERRKQKEYFERNKLKSKLKLLGVVSPVKKPSVSLDLLNLYVVNQISSMKENSETMKRPTHVNMTRDLKVPLRKHDLELPMSPHCVPSKLCIDDMEDSVPYQRIYSKEETGPVQSSQDMKSYRMFNETGNCSYIPPSFPEELRSNRHIRSQHSTPRIGPSPQQFVYENPHSGQFSNGKFPESLFSKLNKHQHVFSSSQTTAEFEAPYKRTNSSETGDFLTKRSMIMGEDCRSLYERRQPDFAMEKPLVQQIYANNGEEFSNFLEDVIHPTQRHLPDNHNSFVSHSMIDLLSKDQPGRRATFTKCGYDSLSDTHVVSSDESHSSSGLINGEFTVPQATSPNFPFNTSYTETCQPNRPCQEYNSNEINEFRRSFEKDCYSIGCGRKGKIESDKQLKELQRNARKHPVYTMADIPLEELHCKQSCDFDQNEIPMERRGMCPLKGQPMSTEKIYLESSQSSQSASYSPRPTESTFSSSTDLISEDEDQIQQQTEDSNKKATETTGNCCLEKMENHFDDITVKDDATAHKQNHKCLQSSEKNNADAFPESQCNSEHTVQNKSTDNCVLQAGRCDVGVQTEEAPLVGNTADVAVQCTIITRCSCMSSPVLIREKESSHPEAGSCTEDRTADTTGGQETPTSNSL
binds: [2] | [3] | [4]

B3: human HA-tagged M1AP (protein, UniProt Q8TC57 1-530)
chain: MHPGRTTGKGPSTHTQIDQQPPRLLIVHIALPSWADICTNLCEALQNFFSLACSLMGPSRMSLFSLYMVQDQHECILPFVQVKGNFARLQTCISELRMLQREGCFRSQGASLRLAVEDGLQQFKQYSRHVTTRAALTYTSLEITILTSQPGKEVVKQLEEGLKDTDLARVRRFQVVEVTKGILEHVDSASPVEDTSNDESSILGTDIDLQTIDNDIVSMEIFFKAWLHNSGTDQEQIHLLLSSQCFSNISRPRDNPMCLKCDLQERLLCPSLLAGTADGSLRMDDPKGDFITLYQMASQSSASHYKLQVIKALKSSGLCESLTYGLPFILRPTSCWQLDWDELETNQQHFHALCHSLLKREWLLLAKGEPPGPGHSQRIPASTFYVIMPSHSLTLLVKAVATRELMLPSTFPLLPEDPHDDSLKNVESMLDSLELEPTYNPLHVQSHLYSHLSSIYAKPQGRLHPHWESRAPRKHPCKTGQLQTNRARATVAPLPMTPVPGRASKMPAASKSSSDAFFLPSEWEKDPSRP
binds: [5] | [6] | [7] | [8] | [9]

B4: mouse HA-tagged M1AP (protein, UniProt Q9Z0E1 1-529)
chain: MNRRKTTSRGTSAAMKISHQPPRLLIVNIAVPSWVDICPNLCEALQNFFSIACSLMGPSRMSLFSLYTVQNQHECVLPFVQVRGNFIRLQACISELRMLQVEGCHRPPHALLPLAIEDGLQQFKQYSSHMASSAAQPWTSLEITVLTSRPGKEVVKELEEGLKDINLLSVRRLQVAEVTKGIQERSDSPSPTEEPSNDESSILEADIVLETLDNDVVSMEVFFKAWLHNSETDQENIHLLLTPQSLPPPSRAKDHPICLKCDLQERFLSPSLLPGTADGVSRIDDPKGDISTLYQMASLASASPYKLQVVKALKSSGICESLTYGLPFILRPTSCWQLDWDELETNQQHFHALCHCLLKRDWLLLARGEPLIHKHNQSLPACSFYVITPSHSLTLLVKLVATRELMLPGFFPLLSEDPPEDSLKIIESTLDSLDLGLTYNPLHVGSHLYSHLSSAHAKPQGRLYTSCASRGLRKGGQLQTNRVRAAVVPLPVAPAPRRALKMTAASKASSAAFLPSDSEEGEEERPSHT
binds: [2] | [3] | [4]

B5: human HA-tagged REDIC1 (protein, UniProt Q86WS4 1-652)
chain: MNWVGGSRSRVLIKQERRKQKEYFEKHRLKSKMKSLGVLSPVKNSAVSLDILNLYMVNQISCKKKIPETVRKPTHVNMNRDIKMPLRKHNLELTMSPHCVPSKLCLDDTETNVNCQRLSSKEDLGPVQSQGMDSYSMLHPQFSKIENCSFTPSSFSVELPSNRHISKLNFTSGIAPTPQKLAYEKKQNDQRSTVNCSDSLLSKLNKSQDVFSPSHKTTRFGTLFERLNSLGNRNLLTKSPAVIMDEDCRSTDEIRQSDYITEKHSIQHIWGKNGKEVSNFLEDVNQSTPNLLSENCDSFVSQNMINVLNIDEQRIKKTFNKCDYDSMGDTCVVTSSDKNHVTDRCIRNIFTVPELTFSNSTLNKTSYPEKCQPNKKYQREYNKNERNDLSTSFENDYYPSSSERKEKFENDYQEKTPQKSIQKYPANSMGNIPSEELHSKQSWDFGLDEILMEEGGIYSLKSKRISTKKISLDSAQSSRSTSYSPRPTDSCFSSSSDLPSEDEDQISQQIEDSNRMTIKTKEKMNNFYVERMAKLSGDRIVKNDDKIHKQNENFYQFSVKNNTDQFPQLQCNSAHILQNKTNDNCVLQAARCDAGIQTESESVMEEKLDVAIQCDLISKCTCRSDVSLCNLERCSGNIKADTTGGQEIHKNN
binds: [5] | [6] | [7] | [8] | [9]

From paper PMC13245411
